Measurements from PubChem BioAssay AID2685 (National Center for Advancing Translational Sciences (NCATS), 2010).
Some of the results follow. Shown are side measurements of this screen, not its main read-out; they come without a call. Compounds called inactive in the main read-out are mostly missing here. Potencies come from curve fits of mixed quality, noted in brackets.

Assay: qHTS Assay for Lipid Storage Modulators in Drosophila S3 Cells;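 on cell number change: cells counted by Cell Tracker Red CMTPX staining in the red channel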
Conditions: BODIPY lipid droplet fluorescence, 18-24 h; for cell number change: measured here: cell count max response, cells fed with added oleic acid
Method in brief: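 Drosophila S3 cells got compounds at several concentrations plus oleic acid (400 uM solution). Laser-scanning cytometry with 488 nm excitation read lipid droplets at 500-530 nm and cells at 575-640 nm. Percent activity was relative to 20 uM Triacsin C.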

[1] = measured here: cell number channel AC50, cells fed with added oleic acid
[2] = measured here: lipid fluorescence (Fed channel) AC50, cells fed with added oleic acid

| Compound | cell number change [%] | AC50 [1] | AC50 [2] |
| --- | --- | --- | --- |
| O=C(COc1ccc(Br)cc1CNC1CCCC1)Nc1ccccc1 | 10.5 | 7.31 µM [falling, partial curve, poor fit] |  |
| COc1ccc(N2C(=O)CC(Sc3nnnn3-c3ccc(F)cc3)C2=O)cc1 (stereo unspecified) | -41.5 | 3.66 µM [falling, full curve] |  |
| COc1ccc(OC)c(S(=O)(=O)NC2CCCCC2)c1 | 49 | 29.1 µM [rising, single point] | 6.51 µM [rising, partial curve] |
| COc1cc2c(cc1OC)CN(S(C)(=O)=O)CC2 |  |  | 29.1 µM [rising, single point] |
| O=C(Nc1ccc(S(=O)(=O)N2CCCCCC2)cc1)c1c(F)cccc1F | 12.1 |  |  |
| O=C(N1CCOCC1)N1CCN(c2nc(-c3ccccc3)cs2)CC1 | 43.1 | 2.59 µM [rising, full curve] |  |
| C=CCNc1nnc(SCC(=O)N2CCCCC2)c2ccccc12 |  | 0.92 µM [rising, full curve] | 0.231 µM [rising, full curve] |
| CCOC(=O)CNC(=O)c1c(C)nn(C)c1Cl | -46.4 |  |  |
| COC(=O)c1c(S(=O)(=O)NCc2ccccc2)sc(C(=O)O)c1C | -5.52 |  | 29.1 µM [falling, single point] |
| CCOc1ccc(C2N(c3ccc(OC)cc3)C(=O)C3CCCN32)cc1OC (stereo unspecified) |  |  | 29.1 µM [rising, partial curve, poor fit] |
| COc1ccc(CNCc2c(F)cccc2F)cc1OC | 4.4 |  |  |
| CN(C)S(=O)(=O)c1cccc(NC(=O)CO/N=C(\N)c2ccccc2)c1 |  | 0.92 µM [rising, partial curve] | 0.116 µM [rising, full curve, poor fit] |
| O=C(Nc1ccc(Nc2ccncc2)cc1)c1ccc(Nc2ccnc3ccc([N+](=O)[O-])cc23)cc1[N+](=O)[O-] | -26.9 |  | 29.1 µM [falling, single point] |
| COc1ccc(C2(C(=O)NCCCN3CCOCC3)CCOCC2)cc1 | 5.01 |  |  |
| CC(=O)Nc1ccc(S(=O)(=O)NCc2nc(-c3ccccc3Cl)no2)cc1 | 2.52 |  |  |
| CSc1cc(-c2ccccc2)n(Cc2ccc(Cl)cc2Cl)c(=O)c1C#N |  | 0.731 µM [rising, single point] | 0.651 µM [rising, single point] |
| CCN(Cc1ccccc1)C(=O)Cc1ccc(OC)c(S(=O)(=O)N2CCOCC2)c1 |  | 0.58 µM [falling, full curve, poor fit] | 6.51 µM [rising, single point] |
| CCCCNC(=O)CC1N=C2c3ccccc3N=C(SCC(=O)Nc3ccccc3OC)N2C1=O (stereo unspecified) | 2.33 |  | 0.92 µM [rising, full curve] |
| COc1ccccc1N(Cc1cc(=O)[nH]c2ccccc12)C(=O)C(C)C | 45.4 | 5.17 µM [rising, full curve, poor fit] | 9.2 µM [rising, partial curve] |
| CC(C)Cc1nnc(NS(C)(=O)=O)s1 | 13 |  | 1.16 µM [falling, full curve, poor fit] |

Structures from the list above containing two or more sulfur atoms (2):

| Compound | cell number change [%] | AC50 [1] | AC50 [2] |
| --- | --- | --- | --- |
| COC(=O)c1c(S(=O)(=O)NCc2ccccc2)sc(C(=O)O)c1C | -5.52 |  | 29.1 µM [falling, single point] |
| CC(C)Cc1nnc(NS(C)(=O)=O)s1 | 13 |  | 1.16 µM [falling, full curve, poor fit] |

Continued.

| Compound | cell number change [%] | AC50 [1] | AC50 [2] |
| --- | --- | --- | --- |
| O=C(O)c1ccc(N/N=C/c2c(F)cccc2Cl)cc1 | 21.5 |  | 0.58 µM [rising, partial curve] |
| CN(C(=O)c1ccc(OC2CCN(Cc3ccccn3)CC2)cc1)C1CCCCC1 | 22.6 |  | 13 µM [rising, single point] |
| CC(NC(=O)C1c2ccccc2Oc2ccccc21)C1CCCO1 (stereo unspecified) | 62.9 | 18.4 µM [rising, single point] | 29.1 µM [rising, single point] |
| COc1ccccc1C(=O)Nc1cccc2nc(C)ccc12 | -25.7 |  |  |
| Cc1cc(N2CCCC2=O)cc(C)c1S(=O)(=O)NCCOc1ccc(C(C)(C)C)cc1 | -54.2 | 4.61 µM [falling, partial curve] | 4.11 µM [falling, full curve] |
| O=C(CNC(=O)c1cccc(Br)c1)N/N=C/c1cc(Br)cc(Br)c1O |  |  | 6.51 µM [rising, single point] |
| O=S(=O)(c1cc(C(F)(F)F)ccc1Cl)N1CCN(c2ccccn2)CC1 | 40.2 | 4.61 µM [rising, full curve] |  |
| Cc1nc(NC(=O)c2ccccc2)sc1-c1csc(Nc2cccc(F)c2)n1 | -67.8 | 8.2 µM [falling, partial curve] |  |
| Cc1ccc(/C(O)=C2\C(=O)C(=O)N(C)C2c2ccc([N+](=O)[O-])cc2)cc1 (stereo unspecified) | 23.7 |  |  |
| O=C(C1CCN(S(=O)(=O)c2cccc3cccnc23)CC1)N1CCn2c1nc1ccccc12 | -11.6 |  | 8.2 µM [rising, partial curve] |
| O=[N+]([O-])c1cccc(S(=O)(=O)c2ccc(NCCO)c([N+](=O)[O-])c2)c1 | 11.3 | 0.13 µM [falling, full curve, poor fit] | 0.13 µM [falling, full curve, poor fit] |
| CC(=O)c1cn(-c2ccc(Cl)cc2)c(=O)n(Cc2ccc(F)cc2)c1=O | 3.69 |  |  |
| N#Cc1ccc(OCC(=O)N/N=C(\CCC(=O)O)c2cccs2)cc1 | -9.25 |  | 6.51 µM [falling, single point] |
| O=C(NC(Nc1nc2ccc([N+](=O)[O-])cc2s1)(C(F)(F)F)C(F)(F)F)c1ccccc1 |  | 5.8 µM [falling, partial curve] | 6.51 µM [falling, single point] |
| Nc1c(-c2ccccc2)c(CSc2nc3ccccc3[nH]2)nn1-c1cccc(Cl)c1 |  | 2.06 µM [rising, partial curve, poor fit] | 0.103 µM [falling, full curve, poor fit] |
| Cc1ccc(-c2nn(CC(=O)NCC3CCCO3)c(=O)c3ccccc23)cc1 (stereo unspecified) | 17.6 |  |  |
| Cc1cc(C)n2nnnc2c1C#N | 3.76 | 0.13 µM [falling, full curve, poor fit] |  |
| N#Cc1cc2c(=O)n3ccccc3nc2n(Cc2ccco2)c1=NC(=O)c1ccco1 | 2.98 |  | 0.231 µM [falling, full curve, poor fit] |
| Cc1nc2nc(C)n(-c3ccccc3)c2s1 | 25 |  | 29.1 µM [rising, single point] |
| CCCC(c1nnnn1C(C)(C)CC)N1CCN(C(=O)c2ccco2)CC1 (stereo unspecified) | 19.2 |  | 1.16 µM [falling, single point] |

| Compound | cell number change [%] | AC50 [1] | AC50 [2] |
| --- | --- | --- | --- |
| Cc1cccc(-c2noc(CN(C(=O)c3c(-c4ccccc4Cl)noc3C)C(C)C)n2)c1 | -0.327 |  | 0.103 µM [rising, single point] |
| CCOc1ccc(NC(=O)CSc2nnc(CCNC(=O)c3ccc(OC)cc3)n2C)cc1 | -13.6 |  |  |
| COCCn1c(=NC(=O)c2sc3ccccc3c2Cl)sc2cc(S(N)(=O)=O)ccc21 | 7.87 |  | 1.84 µM [rising, partial curve] |
| O=C1c2ccccc2NC2CCCCC12 (stereo unspecified) | -25.6 |  | 4.11 µM [rising, single point] |
| COc1ccc2oc(C(=O)Nc3nc4ccc(S(C)(=O)=O)cc4s3)c(C)c2c1 | -11.2 |  |  |
| CCOc1ncccc1C(=O)OCC(=O)c1ccc(F)cc1 |  | 6.51 µM [rising, single point] | 5.17 µM [rising, partial curve] |
| CCCSc1nnc2n(-c3ccccc3OC)c(=O)c3c4c(sc3n12)CCC4 | 25.1 | 0.146 µM [falling, full curve, poor fit] | 6.51 µM [rising, single point] |
| N#CC1=C(N)N(c2ccccc2)C(c2ccccc2)C1(C#N)C#N (stereo unspecified) | -24.1 |  | 0.13 µM [falling, full curve, poor fit] |
| O=C1Nc2ccccc2C(O)(C(=O)NCc2ccco2)N1c1ccccc1 (stereo unspecified) | -31.2 | 0.0206 µM [falling, full curve, poor fit] | 20.6 µM [falling, single point] |
| CCCc1cc(=O)oc2cc(OCC(=O)OC)cc(OCC(=O)OC)c12 | 19.8 |  |  |
| O/N=C(\c1ccc(Cl)cc1)c1cc2ccccc2o1 | -84.2 | 29.1 µM [falling, partial curve] | 1.64 µM [falling, full curve] |
| Nn1cc(-c2ccccc2)nc1SCC(=O)Nc1ccc2c(c1)OCO2 | -15.2 |  | 13 µM [falling, single point] |
| O=C(CCCN1C(=O)/C(=C/c2ccc3c(c2)OCO3)SC1=S)Nc1cccc(C(=O)O)c1 | 2.16 |  | 9.2 µM [falling, partial curve, poor fit] |
| COc1ccc(OC)c(-c2nnc(SCC(=O)N3CCCC3)o2)c1 | -8.73 |  | 3.66 µM [rising, partial curve] |
| O=C(CNCc1ccco1)Nc1ccc(N2CCCCCC2)cc1 | 3.35 |  | 18.4 µM [rising, single point] |
| CCc1ccc(-c2nc(CS(=O)CC(=O)NC3CCCCCC3)c(C)o2)cc1 (stereo unspecified) | 10.6 |  | 0.651 µM [rising, full curve, poor fit] |
| CCC(Nc1ccc(OC)cc1)C(=O)N/N=C/c1ccc([N+](=O)[O-])cc1 (stereo unspecified) | 25 |  | 16.4 µM [rising, single point] |
| Cn1c(/C=C/c2ccc(Cl)cc2Cl)c([N+](=O)[O-])c(=O)n(C)c1=O | -37.8 | 0.00651 µM [falling, full curve, poor fit] |  |
| O=C(COC(=O)c1ccccc1[N+](=O)[O-])c1ccc(C2CCCCC2)cc1 | -41.1 | 7.31 µM [falling, partial curve] |  |
